Measured values: patent US20060183194A1 (Genentech, published 2006)
These are yes or no findings as the source states them, for the method shown. Some entries that bind do so weakly or less than the wild type. For some assays here: Where a sequence is shown, tags or fusion partners need not be part of it.

B1: Library D variant D1 of HRG-β1 EGF on phage (ligand, not shown: large carriers; small tags and cut ends)
chain: SHLVKCAEKEKTFCVNGGECYKVRILSNPSRYLCKCPNEFTGDRCQNYVIAS
B2: Library B variant B3 of HRG-β1 EGF on phage (ligand, not shown: large carriers; small tags and cut ends)
chain: SHLVKCGEEREGFCVNGGECFMVKDLSNPSRYLCKCPNEFTGDRCQNYVMAS
B3: Library B variant B10 of HRG-β1 EGF on phage (ligand, not shown: large carriers; small tags and cut ends)
chain: SHLVKCDKSREGFCVNGGECFMVKDLSNPSRYLCKCPNEFTGDRCQNYVIAS
B4: Library B variant B5 of HRG-β1 EGF on phage (ligand, not shown: large carriers; small tags and cut ends)
chain: SHLVKCGWDREGFCVNGGECFMVKDLSNPSRYLCKCPNEFTGDRCQNYVIAS

target: T1, ErbB-3 receptor-Ig fusion (human, UniProt P21860 20-643); experiment: phage ELISA
T1 construct: extracellular domain;range 224-C-terminus; also called ErbB-3-Ig; 3/3 homodimer; not shown: human IgG heavy chain constant region from His224 (hinge) on

Question: For B1, which binding is on record?
Answer: Its binding is “binds”.

Question: How did the binding turn out when B2 was run?
Answer: Its binding is “binds”.

Question: B3 was tested. Which binding did it give?
Answer: The binding was “binds”.

Question: For B4, which binding is on record?
Answer: Its binding is “binds”.

Question: For SHLVKCAEKEKTFCVNGGECFMVKDYRYRMCKCPNEFTGDRCQNYVIAS (ligand, not shown: large carriers; small tags and cut ends) [Library E variant E3 of HRG-β1 EGF on phage], which binding is on record?
Answer: Its binding is “binds”.

Question: For SHLVKCAEKEKTFCVNGGECFMVKDTHYRMCKCPNEFTGDRCQNYVMAS (ligand, not shown: large carriers; small tags and cut ends) [Library E variant E6 of HRG-β1 EGF on phage], which binding is on record?
Answer: The binding was “binds”.

Question: How did the binding turn out when SHLVKCAEKEKTFCVNGGECFMVKDTKYRGCKCPNEFTGDRCQNYVMAS (ligand, not shown: large carriers; small tags and cut ends) [Library E variant E8 of HRG-β1 EGF on phage] was run?
Answer: Its binding is “binds”.

target: T2, ErbB-4 receptor-Ig fusion (human, UniProt Q15303 26-651); experiment: phage ELISA
T2 construct: extracellular domain;range 224-C-terminus; also called ErbB-4-Ig; not shown: human IgG heavy chain constant region from His224 (hinge) on
T2 sequence: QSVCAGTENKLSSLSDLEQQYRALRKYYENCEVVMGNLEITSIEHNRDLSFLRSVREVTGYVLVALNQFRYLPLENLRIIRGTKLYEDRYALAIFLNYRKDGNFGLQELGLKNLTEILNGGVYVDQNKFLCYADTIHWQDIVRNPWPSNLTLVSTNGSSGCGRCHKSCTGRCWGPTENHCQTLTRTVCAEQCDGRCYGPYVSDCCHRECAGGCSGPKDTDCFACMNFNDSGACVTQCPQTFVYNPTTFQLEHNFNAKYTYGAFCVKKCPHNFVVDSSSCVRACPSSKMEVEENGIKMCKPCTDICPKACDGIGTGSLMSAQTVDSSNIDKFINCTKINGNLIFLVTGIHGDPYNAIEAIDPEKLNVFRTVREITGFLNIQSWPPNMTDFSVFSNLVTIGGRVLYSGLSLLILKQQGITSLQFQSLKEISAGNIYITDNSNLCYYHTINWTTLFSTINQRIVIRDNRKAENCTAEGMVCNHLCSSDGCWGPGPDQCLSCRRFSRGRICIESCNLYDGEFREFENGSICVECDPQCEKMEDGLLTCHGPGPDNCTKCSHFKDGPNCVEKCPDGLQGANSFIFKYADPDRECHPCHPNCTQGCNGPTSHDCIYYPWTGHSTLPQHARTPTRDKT

Question: For B2, which binding is on record?
Answer: Its binding is “binds”.
